PubChem BioAssay AID652272 – Drosophila RNAi Screening Center, 2013
The deposit covers about 21,000 reagents; below is a random part of those that have a named target and a result. Of all reagents, 503 (2.4%) are marked active. 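Raw plate light values, not normalised; calls rest on replicate z-scores that were not deposited; hits include reporter decreases as well as increases.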 A plus sign joins genes that one reagent is predicted to hit. Not stated in the record: the amount of reagent, the time to read-out.

Purpose: 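Finding fly genes that regulate Hedgehog signal transduction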 (primary screen)
System: Drosophila clone 8 (Cl8) cells
Reagents: long dsRNA against Drosophila genes
Measured: 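Firefly light from a Hedgehog-responsive ptc promoter reporter and Renilla reference light, both read on a plate reader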
Direction: firefly Hh reporter signal: higher = more ptc reporter light; Renilla reference signal: higher = more Renilla control light
Hit rule: 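Hit when the z-score averaged over two replicates is under -2 or over +3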
Meaning of the calls: active = hit: reporter lowered or raised; inactive = not a hit

Gene | dsRNA | firefly Hh reporter signal, replicate 1 | firefly Hh reporter signal, replicate 2 | firefly Hh reporter signal, replicate 3 | Renilla reference signal, replicate 1 | Renilla reference signal, replicate 2 | activity call
CG11180 | DRSC06055 | 1.28e5 | 75659 | – | 6773 | 4089 | inactive
Cep290 (Centrosomal protein 290kDa) | DRSC08359 | 86474 | 64327 | – | 3261 | 4512 | inactive
BomBc3 (Bomanin Bicipital 3) | DRSC15873 | 8.33e5 | 1.95e5 | – | 37011 | 14832 | inactive
CG31233 | DRSC15888 | 7.79e5 | 1.58e5 | – | 35717 | 2928 | inactive
Rnb (R and B) | DRSC16325 | 80697 | 44443 | – | 2308 | 1667 | inactive
Pgm2a (Phosphoglucomutase 2a) | DRSC07068 | 1.26e5 | 58448 | – | 4858 | 2193 | inactive
CG34124 | DRSC00849 | 6.56e5 | 2.07e5 | – | 30796 | 8208 | inactive
Pino (Pinocchio) | DRSC00038 | 4.13e5 | 1.15e5 | – | 21117 | 4405 | inactive
Pino (Pinocchio) | DRSC00662 | 1.01e5 | 86613 | – | 4480 | 4005 | inactive
dob (doppelganger von brummer) | DRSC19948 | 1.50e5 | 97010 | – | 3562 | 2293 | inactive
Hml (Hemolectin) | DRSC11183 | 46346 | 37932 | 55093 | 3520 | 3378 | inactive
CG11191 | DRSC06056 | 89485 | 63469 | – | 4432 | 2864 | inactive
Glys (Glycogen synthase) | DRSC16130 | 1.43e5 | 1.17e5 | – | 5857 | 4556 | inactive
CG17598 | DRSC20636 | 99353 | 71289 | – | 2317 | 1837 | inactive
CheB98a (Chemosensory protein A 98a) | DRSC14882 | 1.06e5 | 1.03e5 | – | 3960 | 3016 | inactive
CG4520 | DRSC15590 | 93069 | 87704 | – | 3335 | 2546 | inactive
CG33093 | DRSC15775 | 4.60e5 | 89584 | – | 3872 | 3872 | inactive
lqfR (liquid facets-Related) | DRSC14703 | 1.09e5 | 67120 | – | 3300 | 2005 | inactive
lqfR (liquid facets-Related) | DRSC14704 | 1.08e6 | 2.03e5 | – | 56635 | 4634 | inactive
CG31913 | DRSC00892 | 4.89e5 | 1.43e5 | – | 24707 | 6587 | inactive
dpr15 (defective proboscis extension response 15) | DRSC12891 | 49747 | 2.01e5 | – | 10378 | 4120 | inactive
dpr15 (defective proboscis extension response 15) | DRSC14187 | 80850 | 1.32e5 | – | 2016 | 3241 | inactive
dpr15 (defective proboscis extension response 15) | DRSC14188 | 1.03e5 | 1.43e5 | – | 1620 | 2234 | active
Rfx | DRSC16820 | 50967 | 87460 | – | 2092 | 2423 | inactive
dos | DRSC07992 | 41260 | 73253 | – | 1269 | 3181 | inactive
dos | DRSC08713 | 69099 | 32889 | – | 1920 | 2497 | inactive
CngA (Cyclic nucleotide-gated ion channel subunit A) | DRSC06580 | 58423 | 36456 | – | 1488 | 2755 | inactive
CngA (Cyclic nucleotide-gated ion channel subunit A) | DRSC07362 | 93184 | 51664 | – | 2208 | 3350 | inactive
CG43271 | DRSC01614 | 6.18e5 | 1.19e5 | 1.14e5 | 4065 | 3409 | inactive
CG34447 | DRSC00741 | 99912 | 90624 | – | 2860 | 2450 | inactive
Stacl (Stac-like) | DRSC05553 | 61547 | 98772 | – | 8231 | 4970 | inactive
Stacl (Stac-like) | DRSC06260 | 82257 | 64821 | – | 2164 | 4401 | inactive
Stacl (Stac-like) | DRSC06261 | 82748 | 58464 | – | 2278 | 4321 | inactive
Stacl (Stac-like) | DRSC06777 | 90721 | 59858 | – | 2656 | 4135 | inactive
Stacl (Stac-like) | DRSC07091 | 1.78e5 | 74898 | 71484 | 13494 | 3837 | active
CG13933 | DRSC08402 | 1.16e5 | 72209 | – | 5042 | 3172 | inactive
RYBP (Ring and YY1 Binding Protein) | DRSC04117 | 74195 | 82930 | – | 3188 | 3392 | inactive
AcCoAS (Acetyl Coenzyme A synthase) | DRSC11477 | 6.91e5 | 3.57e5 | 1.13e5 | 5120 | 8227 | inactive
AcCoAS (Acetyl Coenzyme A synthase) | DRSC11603 | 66259 | 52473 | – | 2305 | 2077 | inactive
CG4042 | DRSC11751 | 92074 | 92620 | – | 3524 | 2976 | inactive

Entries listed so far whose gene name begins with A or a:
Gene | dsRNA | firefly Hh reporter signal, replicate 1 | firefly Hh reporter signal, replicate 2 | firefly Hh reporter signal, replicate 3 | Renilla reference signal, replicate 1 | Renilla reference signal, replicate 2 | activity call
AcCoAS (Acetyl Coenzyme A synthase) | DRSC11477 | 6.91e5 | 3.57e5 | 1.13e5 | 5120 | 8227 | inactive
AcCoAS (Acetyl Coenzyme A synthase) | DRSC11603 | 66259 | 52473 | – | 2305 | 2077 | inactive

Next records follow:
Gene | dsRNA | firefly Hh reporter signal, replicate 1 | firefly Hh reporter signal, replicate 2 | firefly Hh reporter signal, replicate 3 | Renilla reference signal, replicate 1 | Renilla reference signal, replicate 2 | activity call
Pabp2 | DRSC07501 | 52682 | 30900 | – | 1850 | 2992 | inactive
Gmd (GDP-mannose 4,6-dehydratase) | DRSC03119 | 84087 | 77693 | – | 3616 | 3736 | inactive
CG40045 | DRSC21232 | 7.72e5 | 2.66e5 | – | 44857 | 6939 | inactive
Gr58c (Gustatory receptor 58c) | DRSC04136 | 98203 | 38156 | – | 2440 | 3868 | inactive
CG11247 | DRSC11643 | 1.36e5 | 4.99e5 | 1.13e5 | 5739 | 31466 | inactive
ND-B22 (NADH dehydrogenase (ubiquinone) B22 subunit) | DRSC03193 | 73157 | 37680 | – | 2620 | 5130 | active
lncRNA:CR42862 (long non-coding RNA:CR42862) | DRSC08348 | 91984 | 1.02e5 | – | 4034 | 4633 | inactive
CG7675 | DRSC16280 | 1.37e5 | 1.33e5 | – | 4919 | 5258 | inactive
CG10098 | DRSC12509 | 1.12e5 | 71424 | – | 4288 | 2656 | inactive
Acyp2 (Acylphosphatase 2) | DRSC15336 | 1.20e5 | 1.04e5 | – | 3401 | 2605 | inactive
IRSp53 (Insulin receptor substrate 53 kDa) | DRSC10891 | 36300 | 53089 | 43468 | 3896 | 3561 | inactive
CG7430 | DRSC10845 | 1.14e5 | 52246 | – | 4441 | 2288 | inactive
CG43134 | DRSC17318 | 6.15e5 | 2.42e5 | – | 29802 | 4689 | inactive
Ubc10 (Ubiquitin conjugating enzyme 10) | DRSC07568 | 49280 | 34725 | – | 956 | 3364 | inactive
Cks85A (Cyclin-dependent kinase subunit 85A) | DRSC16562 | 82864 | 1.50e5 | – | 3111 | 6640 | inactive
CG13386 | DRSC02260 | 82041 | 50743 | – | 2080 | 4391 | inactive
Or46a + asRNA:CR43467 | DRSC07489 | 1.21e5 | 75360 | – | 3217 | 6596 | inactive
Or46a + asRNA:CR43467 | DRSC07490 | 83495 | 62636 | – | 2006 | 4635 | inactive
PolE4 (DNA polymerase epsilon subunit 4) | DRSC04105 | 1.01e5 | 80924 | – | 1612 | 7419 | inactive
Deaf1 (Deformed epidermal autoregulatory factor-1) | DRSC11143 | 1.49e5 | 5.14e5 | 1.80e5 | 5394 | 3591 | inactive
CG12024 | DRSC08229 | 1.23e5 | 92601 | – | 5365 | 3984 | inactive
CG31948 | DRSC00740 | 1.06e5 | 86439 | – | 2579 | 2353 | inactive
CG31468 | DRSC13637 | 63105 | 2.61e5 | – | 14457 | 4733 | inactive
CG8620 | DRSC11020 | 43952 | 49539 | – | 5411 | 3680 | inactive
Mur82C (Mucin related 82C) | DRSC12011 | 1.92e5 | – | – | 5184 | – | inactive
Mur82C (Mucin related 82C) | DRSC12212 | 1.74e5 | 1.41e5 | – | 5491 | 3331 | inactive
side-V (sidestep V) | DRSC04188 | 1.49e5 | 4.87e5 | 72873 | 3842 | 3081 | inactive
side-V (sidestep V) | DRSC04189 | 6.17e5 | 83672 | – | 3910 | 3910 | inactive
jb (jean-baptiste) | DRSC20531 | 73090 | 2.08e5 | – | 1671 | 9419 | inactive
Nurf-38 (Nucleosome remodeling factor - 38kD) | DRSC04629 | 58923 | 57373 | – | 1196 | 5227 | inactive
CR18275 (pseudo) | DRSC18151 | 1.00e5 | 2.52e5 | – | 2992 | 11387 | inactive
Rpp20 + CG33932 | DRSC19467 | 75303 | 1.64e5 | – | 985 | 7492 | inactive
CG9426 | DRSC03219 | 89888 | 33810 | – | 3104 | 3816 | inactive
